This test addresses mouse BMAL1 (mBMAL1), GAL4 fusion from pBIND-mBmal1 (mouse) (UniProt Q9WTL8). The experiment in a line: two-hybrid; mammalian two-hybrid in NIH3T3 cells: pBIND-mBmal1 and pACT-mClock with the pGL5luc reporter, with or without pEGFP-mCry2 or pEGFP-mCry2-Mut, read 24 h after transfection.

The chains behind the UniProt entries cited, without tags or fusion partners.
UniProt Q9WTL8: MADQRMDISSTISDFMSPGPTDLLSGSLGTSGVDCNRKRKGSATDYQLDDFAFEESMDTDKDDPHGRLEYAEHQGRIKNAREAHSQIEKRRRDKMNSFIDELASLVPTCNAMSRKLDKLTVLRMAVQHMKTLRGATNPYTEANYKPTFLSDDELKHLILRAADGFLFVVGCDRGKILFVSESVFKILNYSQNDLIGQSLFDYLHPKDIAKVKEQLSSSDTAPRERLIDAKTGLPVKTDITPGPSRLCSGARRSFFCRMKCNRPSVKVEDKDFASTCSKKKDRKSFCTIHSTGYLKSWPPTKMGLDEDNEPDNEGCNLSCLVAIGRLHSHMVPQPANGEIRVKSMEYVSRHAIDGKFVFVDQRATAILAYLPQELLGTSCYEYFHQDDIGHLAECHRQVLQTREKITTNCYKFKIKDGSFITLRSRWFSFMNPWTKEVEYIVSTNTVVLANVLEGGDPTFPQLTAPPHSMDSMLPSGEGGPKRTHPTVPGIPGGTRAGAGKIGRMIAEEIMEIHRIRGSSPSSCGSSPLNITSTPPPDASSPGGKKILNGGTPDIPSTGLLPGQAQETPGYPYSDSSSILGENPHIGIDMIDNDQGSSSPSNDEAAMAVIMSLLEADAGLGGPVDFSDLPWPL

Results are given in words; binding and its absence hold for the method and conditions named. Some results given as binding are weak or reduced against the parent protein; the word gives no strength. Where a sequence is shown, tags or fusion partners need not be part of it.

B1: mouse CLOCK (mCLOCK), GAL4 fusion from pBIND-mClock (protein, UniProt O08785 1-855)
chain: MVFTVSCSKMSSIVDRDDSSIFDGLVEEDDKDKAKRVSRNKSEKKRRDQFNVLIKELGSMLPGNARKMDKSTVLQKSIDFLRKHKETTAQSDASEIRQDWKPTFLSNEEFTQLMLEALDGFFLAIMTDGSIIYVSESVTSLLEHLPSDLVDQSIFNFIPEGEHSEVYKILSTHLLESDSLTPEYLKSKNQLEFCCHMLRGTIDPKEPSTYEYVRFIGNFKSLTSVSTSTHNGFEGTIQRTHRPSYEDRVCFVATVRLATPQFIKEMCTVEEPNEEFTSRHSLEWKFLFLDHRAPPIIGYLPFEVLGTSGYDYYHVDDLENLAKCHEHLMQYGKGKSCYYRFLTKGQQWIWLQTHYYITYHQWNSRPEFIVCTHTVVSYAEVRAERRRELGIEESLPETAADKSQDSGSDNRINTVSLKEALERFDHSPTPSASSRSSRKSSHTAVSDPSSTPTKIPTDTSTPPRQHLPAHEKMTQRRSSFSSQSINSQSVGPSLTQPAMSQAANLPIPQGMSQFQFSAQLGAMQHLKDQLEQRTRMIEANIHRQQEELRKIQEQLQMVHGQGLQMFLQQSNPGLNFGSVQLSSGNSNIQQLTPVNMQGQVVPANQVQSGHISTGQHMIQQQTLQSTSTQQSQQSVMSGHSQQTSLPSQTPSTLTAPLYNTMVISQPAAGSMVQIPSSMPQNSTQSATVTTFTQDRQIRFSQGQQLVTKLVTAPVACGAVMVPSTMLMGQVVTAYPTFATQQQQAQTLSVTQQQQQQQQQPPQQQQQQQQSSQEQQLPSVQQPAQAQLGQPPQQFLQTSRLLHGNPSTQLILSAAFPLQQSTFPPSHHQQHQPQQQQQLPRHRTDSLTDPSKVQPQ
Turning to B1, the binding entry is given as “binds”.
